Our source for the binding values is paper PMC11354310, “The Discovery of a Specific CKIP-1 Ligand for the Potential Treatment of Disuse Osteoporosis” (International Journal of Molecular Sciences, 2024).

Chains of the proteins cited; added tags and fusions are not shown. Lines headed by an entry give the natural chain unless they say otherwise; changes in a name come on top. A line that says so, or that is headed by a name, gives the form on record, which may keep a tag or linker. Residues count along the entry.
UniProt Q9JIY0: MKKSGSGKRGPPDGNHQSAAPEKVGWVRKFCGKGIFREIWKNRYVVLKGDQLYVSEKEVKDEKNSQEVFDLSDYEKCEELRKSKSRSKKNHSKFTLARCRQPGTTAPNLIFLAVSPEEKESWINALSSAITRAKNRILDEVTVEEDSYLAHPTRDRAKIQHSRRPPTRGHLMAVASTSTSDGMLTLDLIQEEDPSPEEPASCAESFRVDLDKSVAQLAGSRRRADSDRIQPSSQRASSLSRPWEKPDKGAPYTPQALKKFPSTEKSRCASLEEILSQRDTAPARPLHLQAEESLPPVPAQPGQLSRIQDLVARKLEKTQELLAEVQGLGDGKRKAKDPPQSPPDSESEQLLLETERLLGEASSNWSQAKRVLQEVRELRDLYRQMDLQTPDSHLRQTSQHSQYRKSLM
UniProt Q53GL0: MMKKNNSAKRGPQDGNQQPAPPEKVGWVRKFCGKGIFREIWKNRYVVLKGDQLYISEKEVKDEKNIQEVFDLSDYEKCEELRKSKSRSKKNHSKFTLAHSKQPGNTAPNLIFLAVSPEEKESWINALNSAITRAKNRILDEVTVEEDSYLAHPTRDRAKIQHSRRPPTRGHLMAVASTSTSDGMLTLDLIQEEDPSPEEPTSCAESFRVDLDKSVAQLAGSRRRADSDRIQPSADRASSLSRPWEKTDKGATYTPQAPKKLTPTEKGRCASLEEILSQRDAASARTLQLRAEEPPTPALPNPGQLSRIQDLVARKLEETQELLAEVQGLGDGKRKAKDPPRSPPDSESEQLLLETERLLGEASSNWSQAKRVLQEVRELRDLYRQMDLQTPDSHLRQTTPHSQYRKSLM
Flag-tagged CKIP-1 PH (22–136): residues 22-136 of Q53GL0
Flag-tagged CKIP-1 ΔPH (1–22 and 136–409) (Q53GL0, form named): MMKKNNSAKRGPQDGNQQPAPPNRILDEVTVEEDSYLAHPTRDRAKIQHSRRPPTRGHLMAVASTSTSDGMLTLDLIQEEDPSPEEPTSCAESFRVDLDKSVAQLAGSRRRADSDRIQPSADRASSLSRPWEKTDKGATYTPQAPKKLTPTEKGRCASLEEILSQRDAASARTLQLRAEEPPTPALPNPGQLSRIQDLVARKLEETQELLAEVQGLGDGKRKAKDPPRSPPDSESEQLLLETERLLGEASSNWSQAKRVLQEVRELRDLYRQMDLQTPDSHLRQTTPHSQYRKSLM
UniProt P40338: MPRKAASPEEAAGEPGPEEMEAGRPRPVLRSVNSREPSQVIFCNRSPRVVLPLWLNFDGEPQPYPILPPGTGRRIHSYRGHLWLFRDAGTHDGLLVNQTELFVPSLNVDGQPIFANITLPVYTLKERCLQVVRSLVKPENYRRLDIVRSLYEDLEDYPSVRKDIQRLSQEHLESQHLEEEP
UniProt P40337: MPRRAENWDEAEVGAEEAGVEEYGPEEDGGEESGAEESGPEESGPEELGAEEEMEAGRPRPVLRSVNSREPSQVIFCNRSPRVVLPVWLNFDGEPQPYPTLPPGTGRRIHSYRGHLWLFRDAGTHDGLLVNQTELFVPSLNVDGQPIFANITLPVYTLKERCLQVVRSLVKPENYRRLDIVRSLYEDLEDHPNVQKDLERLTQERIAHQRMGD

No constants are given. Whether binding was seen depends on the method and setting. In cells and extracts the contact can be indirect. Some binding calls cover weakened binding; strength is not graded here.

Test [1] has as its target CKIP-1, endogenous in BMSCs (UniProt Q9JIY0). As to the kind of experiment: co-IP; BMSC whole-cell lysates immunoprecipitated with control IgG or CKIP-1 antibody, immunoblot; endogenous proteins. (In general: Immunoblotting shows a protein as a band on a membrane.)
Test [2] concerns the target Flag-tagged CKIP-1 (casein kinase 2 interacting protein-1), wild type (human) (UniProt Q53GL0). In words: co-IP; HEK293T cells transfected for 24 h with Myc-tagged VHL alone or together with Flag-tagged CKIP-1 (WT or constructs); HEPES lysis buffer (20 mM HEPES pH 7.2, 50 mM NaCl, 0.5% Triton X-100); immunoprecipitated with Flag antibody, immunoblot.
Test [3] deals with Flag-tagged CKIP-1 PH (22–136) (human) (UniProt Q53GL0). The description is as above.
Test [4] addresses Flag-tagged CKIP-1 ΔPH (1–22 and 136–409) (human) (UniProt Q53GL0). The description is as above.

With “VHL, endogenous in BMSCs (from UniProt P40338 1-181)”, the binding entry in test [1] is reported as “binds”.

Regarding “Myc-tagged VHL (von Hippel–Lindau), wild type (from UniProt P40337 1-213)”, the binding result in test [2], in test [3] and in test [4] was “binds” throughout.
